Test results reported in paper PMC5343618.
Results are given in words; binding and its absence hold for the method and conditions named.

Tests used:
[1] = biological target: elongation factor G (FusA) (B. subtilis 168) (UniProt P80868); assay: native gel or EMSA; blue native PAGE (BN-PAGE) of the soluble cytoplasmic fraction and the culture supernatant of B. subtilis after 24 h of cultivation; non-reducing sample buffer, Coomassie blue; mass estimated within ±15%
[2] = biological target: enolase (Eno) (B. subtilis 168) (UniProt P37869); assay: as above

Substance	binding [1]	binding [2]
elongation factor G (FusA) (from UniProt P80868 1-692)	no binding	
enolase (Eno) (from UniProt P37869 1-430) (enzyme)		no binding
